No constants are given. Whether binding was seen depends on the method and setting. Some results given as binding are weak or reduced against the parent protein; the word gives no strength.
Assays:
[1] = target: Siglec-8 extracellular domain (ECD) (human) (UniProt Q9NYZ4); test: ELISA, Siglec-8-ECD coated on the plate, time 0
[2] = target: Siglec-8 extracellular domain (ECD) (human) (UniProt Q9NYZ4); test: ELISA, Siglec-8-ECD coated on the plate, formulations of Table A
[3] = target: Siglec-8 extracellular domain (ECD) (human) (UniProt Q9NYZ4); test: ELISA, Siglec-8-ECD coated on the plate, after 1 week at 37 C

Chains of the proteins cited; added tags and fusions are not shown. Residues count along the entry.
UniProt Q9NYZ4, residues 17-363: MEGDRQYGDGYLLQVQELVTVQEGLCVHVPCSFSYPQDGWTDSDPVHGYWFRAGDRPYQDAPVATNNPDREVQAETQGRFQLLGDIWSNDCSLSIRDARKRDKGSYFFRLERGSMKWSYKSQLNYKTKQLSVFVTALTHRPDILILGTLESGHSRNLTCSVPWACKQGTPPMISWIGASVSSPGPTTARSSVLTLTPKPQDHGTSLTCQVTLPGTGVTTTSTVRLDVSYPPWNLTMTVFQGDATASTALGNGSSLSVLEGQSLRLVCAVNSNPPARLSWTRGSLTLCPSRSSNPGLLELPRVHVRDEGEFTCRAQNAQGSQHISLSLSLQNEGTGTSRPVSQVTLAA

Measured: binding

B1: anti-Siglec-8 antibody HEKF (antibody, human IgG1, kappa, V domains shown)
VH: EVQLVESGGGLVQPGGSLRLSCAASGFSLTIYGAHWVRQAPGKGLEWVGVIWAGGSTNYNSALMSRFTISKDNSKNTVYLQMNSLRAEDTAVYYCARDGSSPYYYSMEYWGQGTTVTVSS
VL: EIVLTQSPATLSLSPGERATLSCSATSSVSYMHWFQQKPGQAPRLLIYSTSNLASGIPARFSGSGSGTDYTLTISSLEPEDFAVYYCQQRSSYPFTFGPGTKLDIKR
binds: all assays above

Reference: US20240158498A1
